Like-named read-outs stand apart in the source and are kept apart here. Results are given in words; binding and its absence hold for the method and conditions named. Binding seen in cells or lysates may run through a third protein. Some results given as binding are weak or reduced against the parent protein; the word gives no strength.
Experiments:
Test in all cases: co-IP
FLAG-STING (full-length) = FLAG-STING (full-length) (UniProt Q86WV6)
[1] = target: endogenous STING (human (endogenous in ARPE-19 and SHSY5Y)) (UniProt Q86WV6)
[2] = target: endogenous STING (human (endogenous in ARPE-19 and SHSY5Y)) (UniProt Q86WV6); remark: listed apart in the source

Protein sequences, listed by entry. Tags and fused reporters are not part of them.
UniProt Q86WV6: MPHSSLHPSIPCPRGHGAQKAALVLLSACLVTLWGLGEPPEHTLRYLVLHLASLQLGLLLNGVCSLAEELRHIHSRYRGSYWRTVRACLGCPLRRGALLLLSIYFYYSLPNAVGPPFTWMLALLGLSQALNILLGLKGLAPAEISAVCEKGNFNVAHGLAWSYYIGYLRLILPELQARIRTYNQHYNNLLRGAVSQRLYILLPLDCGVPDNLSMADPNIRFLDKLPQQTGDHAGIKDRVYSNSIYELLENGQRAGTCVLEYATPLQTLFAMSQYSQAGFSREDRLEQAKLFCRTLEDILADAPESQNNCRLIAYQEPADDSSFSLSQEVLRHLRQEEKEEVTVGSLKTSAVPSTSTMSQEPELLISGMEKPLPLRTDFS

Measured: binding

B1: endogenous Midnolin (protein, UniProt Q504T8 1-468)
chain: MEPQPGGARSCRRGAPGGACELGPAAEAAPMSLAIHSTTGTRYDLAVPPDETVEGLRKRLSQRLKVPKERLALLHKDTRLSSGKLQEFGVGDGSKLTLVPTVEAGLMSQASRPEQSVMQALESLTETQVSDFLSGRSPLTLALRVGDHMMFVQLQLAAQHAPLQHRHVLAAAAAAAAARGDPSIASPVSSPCRPVSSAARVPPVPTSPSPASPSPITAGSFRSHAASTTCPEQMDCSPTASSSASPGASTTSTPGASPAPRSRKPGAVIESFVNHAPGVFSGTFSGTLHPNCQDSSGRPRRDIGTILQILNDLLSATRHYQGMPPSLAQLRCHAQCSPASPAPDLAPRTTSCEKLTAAPSASLLQGQSQIRMCKPPGDRLRQTENRATRCKVERLQLLLQQKRLRRKARRDARGPYHWSPSRKAGRSDSSSSGGGGSPSEASGLGLDFEDSVWKPEVNPDIKSEFVVA
binds: all assays above

— article doi:10.1101/2025.01.13.632693
